Assay results as given in PMC3025350, “Regulation and Rate Enhancement during Transcription-Coupled DNA Repair”.
For at least one entry, the source does not settle the construct or the ends of the probe. Protein sequences can lack the tags named with them.

Molecular target: T1, UvrA WT (UniProt P0A698)
T1 sequence (looked up, limits assumed): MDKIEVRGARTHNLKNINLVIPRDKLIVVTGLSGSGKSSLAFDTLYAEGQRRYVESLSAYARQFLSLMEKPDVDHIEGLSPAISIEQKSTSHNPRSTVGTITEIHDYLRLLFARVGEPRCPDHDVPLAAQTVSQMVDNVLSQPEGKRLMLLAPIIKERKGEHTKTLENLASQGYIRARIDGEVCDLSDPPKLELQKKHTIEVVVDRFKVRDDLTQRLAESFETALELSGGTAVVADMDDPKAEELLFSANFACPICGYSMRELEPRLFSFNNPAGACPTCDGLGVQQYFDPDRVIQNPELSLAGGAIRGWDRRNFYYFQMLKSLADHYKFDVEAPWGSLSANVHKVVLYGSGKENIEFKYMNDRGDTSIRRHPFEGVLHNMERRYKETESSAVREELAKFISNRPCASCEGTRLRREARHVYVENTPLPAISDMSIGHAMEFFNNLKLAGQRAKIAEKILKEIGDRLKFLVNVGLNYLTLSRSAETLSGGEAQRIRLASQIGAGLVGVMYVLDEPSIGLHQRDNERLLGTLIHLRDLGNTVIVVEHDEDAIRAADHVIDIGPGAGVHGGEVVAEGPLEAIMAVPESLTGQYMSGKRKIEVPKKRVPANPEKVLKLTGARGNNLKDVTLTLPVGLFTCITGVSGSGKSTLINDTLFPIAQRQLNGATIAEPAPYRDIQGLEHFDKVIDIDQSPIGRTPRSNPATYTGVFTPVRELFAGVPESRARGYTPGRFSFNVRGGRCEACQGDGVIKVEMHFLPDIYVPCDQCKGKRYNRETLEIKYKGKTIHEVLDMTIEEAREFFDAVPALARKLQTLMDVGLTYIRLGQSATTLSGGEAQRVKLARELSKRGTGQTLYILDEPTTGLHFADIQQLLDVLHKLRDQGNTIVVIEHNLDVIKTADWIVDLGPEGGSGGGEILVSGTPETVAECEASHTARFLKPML
Assay: EMSA
Conditions: 2 mM ATP, 1 nM 32P-labeled 50 bp duplex, 20 min at 37°C, recombinant protein, protein details: N-terminal His, label: 32P, letters put together from the description

CTAGGATCGGATAGCGCATGACAGTGACTGGATCGACAGCGTCGTATGAG (double strand) [50 bp undamaged duplex]
Kd: 43 nM
